{"source": "patent US7563623B2", "about": "“Biosensor” (FUJIFILM Corporation, priority 2006, dated 2009)", "note": "Some compounds share one wording; it may come from a single statement.", "data": [{"assay": "Solubility of SAM compounds in water, visual observation after standing at 25° C. for one day", "type": "physicochemical", "conditions": "conclusion from Table 1", "description": "The mixtures were allowed to stand at 25° C. for one day, followed by observation. […] The symbol “x” indicates a resultant in which precipitation and sedimentation were observed, the symbol “Δ” indicates a resultant in which opacity was observed, and the symbol “◯” indicates a resultant having an achromatic and transparent color. • 16-Hydroxy-1-hexadecanethiol (Frontier Scientific) • 11-Hydroxy-1-undecanethiol (Aldrich) • 8-Hydroxy-1-octanethiol (Aldrich) • 6-Hydroxy-1-hexanethiol (Aldrich) • 11-Amino-1-undecanethiol, hydrochloride (Dojindo Laboratories) • 8-Amino-1-octanethiol, hydrochloride (Dojindo Laboratories) • 6-Amino-1-hexanethiol, hydrochloride (Dojindo Laboratories)", "values": [{"smiles": "Cl.NCCCCCCCCCCCS", "note": "[11-Amino-1-undecanethiol, hydrochloride]", "ability to form a self-assembled monolayer (SAM) on a metal film in an aqueous solution system": "unable to form a self-assembled monolayer (SAM)"}, {"smiles": "OCCCCCCCCCCCS", "note": "[11-Hydroxy-1-undecanethiol]", "ability to form a self-assembled monolayer (SAM) on a metal film in an aqueous solution system": "unable to form a self-assembled monolayer (SAM)"}, {"smiles": "OCCCCCCCCCCCCCCCCS", "note": "[16-Hydroxy-1-hexadecanethiol]", "ability to form a self-assembled monolayer (SAM) on a metal film in an aqueous solution system": "unable to form a self-assembled monolayer (SAM)"}]}]}
